Measurements from patent publication US20210369842A1 (Genmab, published 2021).
Results are given in words; binding and its absence hold for the method and conditions named. Some binding calls cover weakened binding; strength is not graded here.

Biological target: Shuffle 6
Assay: flow cytometry on transfected HEK293-T17 cells, 1 µg/mL antibody, APC-labeled AffiniPure F(ab')2 fragment as secondary

binding: binds
B1: CD137-009 (chimeric rabbit/human CD137 antibody) (antibody, V domains shown)
VH: QSLEESGGRLVTPGTPLTLTCTVSGFSLNDYWMSWVRQAPGKGLEWIGYIDVGGSLYYASWAKGRFTISRTSTTVDLKMTSLTTEDTATYFCARGGLTYGFDLWGPGTLVTVSS
VL: DIVMTQTPASVSEPVGGTVTINCQASEDISSYLAWYQQKPGQRPKRLIYGASDLASGVPSRFSASGSGTEYALTISDLESADAATYYCHYYATISGLGVAFGGGTEVVVK
notes: also called antibody CD137-009; rabbit anti-CD137-009
